# In PubChem BioAssay AID1381 (University of Pittsburgh Molecular Library Screening Center, 2008):
# The other results are listed elsewhere or left out.
# Assay: inhibitors of GR-EGFP nuclear translocation, primary screen, dynein cargo transport inhibitor project, imaging, high-content, 3617.4 mouse cells (AID 1381)
# Details: stimulated with dexamethasone, 1 µM
# [1] = measured here: cell count per field, at 20 µM
# [2] = measured here: cytoplasmic GR-EGFP intensity, at 20 µM, stronger effect = higher value
# [3] = measured here: nuclear GR-EGFP intensity, at 20 µM, stronger effect = lower value
# [4] = measured here: cell count per field, at 50 µM
# [5] = measured here: cytoplasmic GR-EGFP intensity, at 50 µM, stronger effect = higher value
# [6] = measured here: nuclear GR-EGFP intensity, at 50 µM, stronger effect = lower value
smiles,measurement,setting,value
Cc1ccc(OCC(C)C)c(CN(CCCl)CCCl)c1,z-score,[1],1.03
same,z-score,[2],0.0671
same,z-score,[3],-1.39
CCOc1ccc(C)cc1CN(CCCl)CCCl,z-score,[1],0.748
same,z-score,[2],-0.208
same,z-score,[3],-0.707
COc1ccc(NC2CCN(CCc3ccccc3)CC2)c(OC)c1,z-score,[1],0.39
same,z-score,[2],-0.216
same,z-score,[3],-0.436
O=C(NCC1(N2CCOCC2)CCCCC1)c1cc2ccccc2o1,z-score,[4],1.02
same,z-score,[5],0.28
same,z-score,[6],-0.269
N#CC1(Nc2ccccc2)CCN(Cc2ccccc2)CC1,z-score,[1],-1.23
same,z-score,[2],-0.241
same,z-score,[3],0.587
O=C(OC1CN2CCC1CC2)C1c2ccccc2Oc2ccccc21 (configuration not stated),z-score,[1],-0.338
same,z-score,[2],-0.357
same,z-score,[3],0.637
CCOC(=O)N1CCC(Nc2ccc(OC)cc2)CC1,z-score,[1],-0.0291
same,z-score,[2],-0.335
same,z-score,[3],-0.231
COc1ccc(C(=O)NCC2(N3CCCCC3)CCCCC2)c(OC)c1OC,z-score,[1],-0.828
same,z-score,[2],-0.222
same,z-score,[3],0.701
CN1CCC(Nc2cccc(F)c2)CC1,z-score,[1],-1.64
same,z-score,[2],-0.181
same,z-score,[3],1.12
CC(C)c1ccc(NC2CCN(C(=O)OC(C)(C)C)CC2)cc1,z-score,[1],-0.0592
same,z-score,[2],-0.215
same,z-score,[3],-0.773
COc1ccc(CN(CCCl)CCCl)cc1Cl,z-score,[1],0.812
same,z-score,[2],-0.221
same,z-score,[3],-0.666
CN(C)c1cccc(C(=O)NCC2(N3CCCCC3)CCCCC2)c1,z-score,[1],-0.465
same,z-score,[2],-0.256
same,z-score,[3],-0.0226
O=C(NCC1(N2CCOCC2)CCCCC1)c1cc(=O)[nH]c2ccccc12,z-score,[4],-0.0606
same,z-score,[5],-0.0823
same,z-score,[6],0.218
COc1ccc(NC2CCN(C(=O)OC(C)(C)C)CC2)cc1,z-score,[1],-1.6
same,z-score,[2],-0.116
same,z-score,[3],1.32
CN1CCN(CCOC(=O)C(O)(c2ccccc2)c2ccccc2)CC1,z-score,[1],0.125
same,z-score,[2],-0.224
same,z-score,[3],0.294
N#CC1(Nc2ccccc2)CCN(CCc2ccccc2)CC1,z-score,[1],0.0761
same,z-score,[2],-0.388
same,z-score,[3],-0.0909
O=C(NCC1(N2CCCCC2)CCCCC1)c1cccc([N+](=O)[O-])c1,z-score,[1],-1.94
same,z-score,[2],-0.294
same,z-score,[3],1.2
c1ccc(CN2CCC(Nc3ccccc3)CC2)cc1,z-score,[4],-0.0701
same,z-score,[5],-0.172
same,z-score,[6],-0.279
N#Cc1ccc(C(=O)NCC2(N3CCCCC3)CCCCC2)cc1,z-score,[1],-0.84
same,z-score,[2],-0.159
same,z-score,[3],-0.0579
N/C(=N\O)c1c(N)no[n+]1[O-],z-score,[1],0.0176
same,z-score,[2],-0.165
same,z-score,[3],0.0477
O=C(OC1CN2CCC1CC2)C1c2ccccc2C=Cc2ccccc21 (configuration not stated),z-score,[1],-1.49
same,z-score,[2],-0.11
same,z-score,[3],0.332
COc1ccc(C(=O)NCC2(N3CCOCC3)CCCCC2)cc1OC,z-score,[1],1.53
same,z-score,[2],-0.273
same,z-score,[3],-0.658
COc1cc(OC)cc(C(=O)NCC2(N3CCOCC3)CCCCC2)c1,z-score,[1],1.87
same,z-score,[2],1.54
same,z-score,[3],-0.0914
CCC(CO)(C(=O)OC1CN2CCC1CC2)c1ccccc1 (configuration not stated),z-score,[1],-1.4
same,z-score,[2],-0.169
same,z-score,[3],0.526
CCCOc1ccc(C)cc1CN(CCCl)CCCl,z-score,[1],0.156
same,z-score,[2],-0.0197
same,z-score,[3],-0.975
CCOc1ncccc1C(=O)NCC1(N2CCOCC2)CCCCC1,z-score,[1],-0.896
same,z-score,[2],-0.00382
same,z-score,[3],0.416
CC(C)(C)OC(=O)N1CCC(Nc2ccccc2)CC1,z-score,[1],0.914
same,z-score,[2],-0.322
same,z-score,[3],-0.133
CCN1CCC(Nc2cccc(F)c2)CC1,z-score,[1],-0.301
same,z-score,[2],-0.229
same,z-score,[3],1.15
CN(C)c1ccc(C(=O)NCC2(N3CCCCC3)CCCCC2)cc1,z-score,[1],0.944
same,z-score,[2],-0.378
same,z-score,[3],-0.413
